Test results as given in article PMC4637903.
No constants are given. Whether binding was seen depends on the method and setting. Binding seen in cells or lysates may run through a third protein. Some results given as binding are weak or reduced against the parent protein; the word gives no strength.

Protein sequences, listed by entry. Tags and fused reporters are not part of them. Residues count along the entry.
UniProt P16144, residues 28-1822: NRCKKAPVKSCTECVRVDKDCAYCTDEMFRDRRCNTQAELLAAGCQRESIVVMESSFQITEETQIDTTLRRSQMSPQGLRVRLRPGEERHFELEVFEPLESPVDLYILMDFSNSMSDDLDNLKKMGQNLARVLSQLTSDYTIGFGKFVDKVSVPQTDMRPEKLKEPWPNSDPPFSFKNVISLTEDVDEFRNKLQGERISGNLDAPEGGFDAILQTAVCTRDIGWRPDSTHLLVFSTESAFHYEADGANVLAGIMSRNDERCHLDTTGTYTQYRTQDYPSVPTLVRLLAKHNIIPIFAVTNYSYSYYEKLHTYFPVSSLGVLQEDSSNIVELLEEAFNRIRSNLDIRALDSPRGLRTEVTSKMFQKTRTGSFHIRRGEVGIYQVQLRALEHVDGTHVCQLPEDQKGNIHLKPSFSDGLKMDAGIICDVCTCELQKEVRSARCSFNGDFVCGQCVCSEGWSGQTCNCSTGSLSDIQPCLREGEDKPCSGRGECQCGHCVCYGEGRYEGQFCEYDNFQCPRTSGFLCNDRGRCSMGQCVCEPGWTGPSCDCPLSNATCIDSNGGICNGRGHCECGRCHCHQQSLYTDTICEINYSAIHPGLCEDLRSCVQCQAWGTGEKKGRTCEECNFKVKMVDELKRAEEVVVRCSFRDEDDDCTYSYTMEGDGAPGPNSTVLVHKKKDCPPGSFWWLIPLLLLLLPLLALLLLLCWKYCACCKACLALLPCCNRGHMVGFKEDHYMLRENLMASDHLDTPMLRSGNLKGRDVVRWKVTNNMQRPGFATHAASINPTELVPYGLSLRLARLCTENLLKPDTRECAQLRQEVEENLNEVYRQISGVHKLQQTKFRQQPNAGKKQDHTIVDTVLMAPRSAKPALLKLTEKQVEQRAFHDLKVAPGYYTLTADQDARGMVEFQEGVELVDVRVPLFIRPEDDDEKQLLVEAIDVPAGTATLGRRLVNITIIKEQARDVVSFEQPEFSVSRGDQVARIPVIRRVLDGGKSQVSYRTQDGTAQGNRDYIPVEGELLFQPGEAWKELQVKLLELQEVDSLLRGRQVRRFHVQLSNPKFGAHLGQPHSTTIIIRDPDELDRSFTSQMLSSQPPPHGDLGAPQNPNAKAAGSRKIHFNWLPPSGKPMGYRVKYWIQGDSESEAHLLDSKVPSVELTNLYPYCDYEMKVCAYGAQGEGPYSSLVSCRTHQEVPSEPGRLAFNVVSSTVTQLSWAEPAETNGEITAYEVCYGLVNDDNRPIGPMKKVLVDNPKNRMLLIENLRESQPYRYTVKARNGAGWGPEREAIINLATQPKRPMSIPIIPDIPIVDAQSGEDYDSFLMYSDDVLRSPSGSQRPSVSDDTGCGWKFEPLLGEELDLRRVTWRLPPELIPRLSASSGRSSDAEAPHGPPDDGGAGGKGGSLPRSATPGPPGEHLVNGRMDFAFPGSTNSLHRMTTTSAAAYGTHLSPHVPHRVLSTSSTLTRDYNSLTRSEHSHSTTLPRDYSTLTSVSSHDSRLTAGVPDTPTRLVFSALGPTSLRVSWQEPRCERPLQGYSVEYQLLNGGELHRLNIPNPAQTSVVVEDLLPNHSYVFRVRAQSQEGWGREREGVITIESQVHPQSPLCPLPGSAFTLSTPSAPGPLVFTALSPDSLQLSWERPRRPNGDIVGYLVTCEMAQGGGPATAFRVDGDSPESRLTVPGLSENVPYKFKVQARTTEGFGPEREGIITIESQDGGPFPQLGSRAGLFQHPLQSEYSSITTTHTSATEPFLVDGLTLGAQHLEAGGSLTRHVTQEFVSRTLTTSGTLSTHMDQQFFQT
UniProt Q05397: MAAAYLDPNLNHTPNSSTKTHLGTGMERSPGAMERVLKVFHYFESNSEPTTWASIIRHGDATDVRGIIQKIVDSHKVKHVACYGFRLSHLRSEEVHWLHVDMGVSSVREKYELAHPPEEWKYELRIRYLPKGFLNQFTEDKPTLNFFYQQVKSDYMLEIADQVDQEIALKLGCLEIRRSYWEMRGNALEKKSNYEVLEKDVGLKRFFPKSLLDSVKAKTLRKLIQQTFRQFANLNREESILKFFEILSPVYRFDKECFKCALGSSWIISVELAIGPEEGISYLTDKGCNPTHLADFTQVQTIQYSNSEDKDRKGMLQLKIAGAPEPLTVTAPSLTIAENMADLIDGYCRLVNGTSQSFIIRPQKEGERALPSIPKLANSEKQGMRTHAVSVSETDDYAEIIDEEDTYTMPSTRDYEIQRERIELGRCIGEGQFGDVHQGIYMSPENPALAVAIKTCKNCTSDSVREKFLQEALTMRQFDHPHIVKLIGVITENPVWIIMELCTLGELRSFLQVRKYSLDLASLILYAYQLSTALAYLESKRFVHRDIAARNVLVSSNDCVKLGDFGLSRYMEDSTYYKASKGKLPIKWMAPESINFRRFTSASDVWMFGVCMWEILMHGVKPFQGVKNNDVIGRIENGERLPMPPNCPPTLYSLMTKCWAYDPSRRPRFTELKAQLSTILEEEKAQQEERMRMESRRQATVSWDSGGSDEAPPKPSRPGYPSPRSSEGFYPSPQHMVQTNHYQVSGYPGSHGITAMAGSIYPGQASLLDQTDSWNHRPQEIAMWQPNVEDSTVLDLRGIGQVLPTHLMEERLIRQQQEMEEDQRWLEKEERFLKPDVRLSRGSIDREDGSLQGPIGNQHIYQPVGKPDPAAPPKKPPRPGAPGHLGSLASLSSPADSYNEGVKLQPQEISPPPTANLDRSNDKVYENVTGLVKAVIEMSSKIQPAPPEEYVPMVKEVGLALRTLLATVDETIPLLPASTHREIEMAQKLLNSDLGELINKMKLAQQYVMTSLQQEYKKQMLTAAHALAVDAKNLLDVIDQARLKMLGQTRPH

How the values were obtained:
[1] = molecular target: β4 integrin (human (endogenous in MDA-MB-231 and other human cell lines and tissue)) (UniProt P16144); test: co-IP; endogenous proteins in MDA-MB-231 lysate, 1 mg/ml total protein, antibody 4 h at 4 °C, protein A- or G-Sepharose; also cells transfected with HA-Src wild type, Src^Y527F or Src^K295M, treated with DMSO, PP2 or PP3 (10 μM), or serum-starved and stimulated with EGF (10 ng/ml)
[2] = molecular target: β4 integrin (human (endogenous in MDA-MB-231 and other human cell lines and tissue)) (UniProt P16144); test: co-IP; cells overexpressing increasing amounts of FAK/25aa; β4 integrin immunoprecipitated, FAK and FAK/25aa detected
[3] = molecular target: β4 integrin (human (endogenous in MDA-MB-231 and other human cell lines and tissue)) (UniProt P16144); test: co-IP; endogenous proteins in HCT-116 cells; unpublished data

Measured: binding

focal adhesion kinase (FAK) (from UniProt Q05397 1-1052) (enzyme)
binds: [1] | [2] | [3]
